Laboratory results as given in article doi:10.1101/724518.
No constants are given. Whether binding was seen depends on the method and setting. In cells and extracts the contact can be indirect. Tags and fused reporters may be left off the sequences shown.

Target: T1, RpoTp fused to the N-terminal portion (YN) of the Venus protein (Arabidopsis thaliana) (UniProt O24600)
T1 sequence: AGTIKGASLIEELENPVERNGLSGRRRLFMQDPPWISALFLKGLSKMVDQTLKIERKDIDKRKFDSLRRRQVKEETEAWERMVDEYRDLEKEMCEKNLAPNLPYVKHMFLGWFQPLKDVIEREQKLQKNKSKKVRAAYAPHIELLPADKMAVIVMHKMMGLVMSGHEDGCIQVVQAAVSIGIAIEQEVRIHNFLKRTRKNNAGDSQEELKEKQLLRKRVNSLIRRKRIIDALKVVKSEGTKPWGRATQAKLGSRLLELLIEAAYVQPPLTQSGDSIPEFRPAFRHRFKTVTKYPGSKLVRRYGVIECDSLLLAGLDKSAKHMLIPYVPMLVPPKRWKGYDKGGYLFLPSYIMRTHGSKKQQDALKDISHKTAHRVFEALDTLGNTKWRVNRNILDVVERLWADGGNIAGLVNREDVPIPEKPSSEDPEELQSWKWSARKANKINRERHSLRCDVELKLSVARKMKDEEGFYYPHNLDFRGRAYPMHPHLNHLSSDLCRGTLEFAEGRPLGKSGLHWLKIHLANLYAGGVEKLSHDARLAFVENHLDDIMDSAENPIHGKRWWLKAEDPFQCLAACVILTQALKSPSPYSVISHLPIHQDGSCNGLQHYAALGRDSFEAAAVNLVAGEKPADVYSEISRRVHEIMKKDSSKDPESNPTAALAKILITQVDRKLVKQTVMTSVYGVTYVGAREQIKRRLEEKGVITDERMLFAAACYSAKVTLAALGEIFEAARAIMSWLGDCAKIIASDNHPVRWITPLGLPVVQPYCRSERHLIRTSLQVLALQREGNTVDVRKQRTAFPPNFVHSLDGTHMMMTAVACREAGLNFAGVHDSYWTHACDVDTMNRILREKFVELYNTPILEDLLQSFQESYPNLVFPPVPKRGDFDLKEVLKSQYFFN
Test: split reporter

B1: CRP1 fused to the C-terminal portion (YC) of the Venus protein (protein, UniProt Q8L844 55-709)
chain: SSYFSSWNGLDTNEEEDNEFSSEVHRRYDFSPLLKFLSRFGPVELALDSESESEASPESLNPVEFDLVESYRAVPAPYWHSLIKSLTSSTSSLGLAYAVVSWLQKHNLCFSYELLYSILIHALGRSEKLYEAFLLSQKQTLTPLTYNALIGACARNNDIEKALNLIAKMRQDGYQSDFVNYSLVIQSLTRSNKIDSVMLLRLYKEIERDKLELDVQLVNDIIMGFAKSGDPSKALQLLGMAQATGLSAKTATLVSIISALADSGRTLEAEALFEELRQSGIKPRTRAYNALLKGYVKTGPLKDAESMVSEMEKRGVSPDEHTYSLLIDAYVNAGRWESARIVLKEMEAGDVQPNSFVFSRLLAGFRDRGEWQKTFQVLKEMKSIGVKPDRQFYNVVIDTFGKFNCLDHAMTTFDRMLSEGIEPDRVTWNTLIDCHCKHGRHIVAEEMFEAMERRGCLPCATTYNIMINSYGDQERWDDMKRLLGKMKSQGILPNVVTHTTLVDVYGKSGRFNDAIECLEEMKSVGLKPSSTMYNALINAYAQRGLSEQAVNAFRVMTSDGLKPSLLALNSLINAFGEDRRDAEAFAVLQYMKENGVKPDVVTYTTLMKALIRVDKFQKVPVVYEEMIMSGCKPDRKARSMLRSALRYMKQTLRAS
  binding: no binding
